# From US12551173B2, “System and method for single-scan rest-stress cardiac PET” (The General Hospital Corporation, priority 2012, dated 2026)
# System: myocardium
# Experiment: MBF estimated with kinetic modeling in phase II clinical 18F-Flurpiridaz rest and stress PET studies
# Type: in vivo, human
# Settings: stress versus rest
# Text: With respect to ^18F-flurpiridaz patient studies, MBF was estimated with kinetic modeling analysis in a group of subjects in phase II clinical trial of ^18F-Flurpiridaz. […] During the rest study, there was no significant difference in MBF (t-test, α=0.05) between the healthy and ischemic myocardium. […] The MBF measured with kinetic modeling for ^18F-Flurpiridaz are consistent with the previously reported MBF measured with other tracers.
structure (smiles),measurement,setting,value
CC(C)(C)n1ncc(OCc2ccc(COCCF)cc2)c(Cl)c1=O [18F-Flurpiridaz],MBF increase during pharmacological stress,healthy myocardium,more than 3 ×
same,MBF change during pharmacological stress,ischemic regions,remained approximately the same
